Measurements reported in PubChem BioAssay AID686938 (Drosophila RNAi Screening Center, 2013).
The deposit covers about 23,000 reagents; shown is a random part of those with a known target gene and a result. In the full data, 75 (0.33%) got an active call. 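Raw plate signals without normalisation; calls rest on plate z-scores that were not deposited; ratio present for only 364 wells.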 Not given: the dose of the treatment.

Screen: 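Looking for CRAC channel components and the factors controlling them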 (primary screen)
Cells: Drosophila S2R+ cells
Knock-down reagent: long dsRNA against Drosophila genes, about 0.25 µg dsRNA per well, roughly 10,000 cells
Time to read-out: 5 days of knock-down before the calcium assay
Treatment: thapsigargin (SERCA pump blocker) to empty calcium stores; entry signal taken 4 min after adding it
Detection: 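Duplicate raw fluo-4 intensities per well from a plate reader, at rest and four minutes after thapsigargin emptied calcium stores; entry-to-rest ratio filled for only some wells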
Direction: calcium entry signal: higher = stronger calcium signal after store depletion; entry to resting ratio: higher = more calcium entry relative to resting level; resting calcium signal: higher = higher resting calcium signal
Hit rule: 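Called when the plate z-score of the entry-to-rest ratio, mean of duplicates, falls below −3; wells with low overall dye signal (Fmax z below −2) or more than five off-targets excluded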
Calls: active = strongly reduced calcium entry; inactive = no strong reduction

With knock-down of mRpL47 (GeneID 41141) [SID104196619] the results were calcium entry signal, replicate 1 (fluorescence units) = 4.38e7; calcium entry signal, replicate 2 (fluorescence units) = 3.03e7; resting calcium signal, replicate 1 (fluorescence units) = 2.01e7; resting calcium signal, replicate 2 (fluorescence units) = 1.64e7; inactive.
For sro (GeneID 43512) [SID104194261], the entry reads calcium entry signal, replicate 1 (fluorescence units) = 3.84e7; calcium entry signal, replicate 2 (fluorescence units) = 4.43e7; resting calcium signal, replicate 1 (fluorescence units) = 1.97e7; resting calcium signal, replicate 2 (fluorescence units) = 2.17e7; inactive.
Silencing of Hydr2 (GeneID 33532) [SID104180399] gave: calcium entry signal, replicate 1 (fluorescence units) = 4.11e7; resting calcium signal, replicate 1 (fluorescence units) = 2.52e7; inactive.
Hsc70-5 (GeneID 36583) [SID104187234] showed calcium entry signal, replicate 1 (fluorescence units) = 2.65e7; calcium entry signal, replicate 2 (fluorescence units) = 4.51e7; resting calcium signal, replicate 1 (fluorescence units) = 1.39e7; resting calcium signal, replicate 2 (fluorescence units) = 2.19e7; inactive.

2 entries from above, arranged by “resting calcium signal, replicate 2 (fluorescence units)”, descending.
sro (GeneID 43512) [SID104194261] → calcium entry signal, replicate 1 (fluorescence units) = 3.84e7; calcium entry signal, replicate 2 (fluorescence units) = 4.43e7; resting calcium signal, replicate 1 (fluorescence units) = 1.97e7; resting calcium signal, replicate 2 (fluorescence units) = 2.17e7; Call = inactive
mRpL47 (GeneID 41141) [SID104196619] → calcium entry signal, replicate 1 (fluorescence units) = 4.38e7; calcium entry signal, replicate 2 (fluorescence units) = 3.03e7; resting calcium signal, replicate 1 (fluorescence units) = 2.01e7; resting calcium signal, replicate 2 (fluorescence units) = 1.64e7; Call = inactive

The list goes on:
Silencing of CG9616 (GeneID 41731) [SID104196310] resulted in: calcium entry signal, replicate 1 (fluorescence units) = 2.16e7; calcium entry signal, replicate 2 (fluorescence units) = 2.72e7; resting calcium signal, replicate 1 (fluorescence units) = 1.16e7; resting calcium signal, replicate 2 (fluorescence units) = 4.35e7; inactive.
CG17239 (GeneID 59224) [SID104180284] gave calcium entry signal, replicate 1 (fluorescence units) = 2.98e7; calcium entry signal, replicate 2 (fluorescence units) = 2.72e7; resting calcium signal, replicate 1 (fluorescence units) = 1.35e7; resting calcium signal, replicate 2 (fluorescence units) = 1.28e7; inactive.
CG8925 (GeneID 41963) [SID104196247] scored calcium entry signal, replicate 1 (fluorescence units) = 3.74e7; calcium entry signal, replicate 2 (fluorescence units) = 6.97e7; resting calcium signal, replicate 1 (fluorescence units) = 1.80e7; resting calcium signal, replicate 2 (fluorescence units) = 7.61e7; inactive.
With knock-down of CG8925 (GeneID 41963) [SID104196248], the screen gave calcium entry signal, replicate 1 (fluorescence units) = 3.74e7; calcium entry signal, replicate 2 (fluorescence units) = 6.83e7; resting calcium signal, replicate 1 (fluorescence units) = 1.87e7; resting calcium signal, replicate 2 (fluorescence units) = 7.63e7; inactive.
CG8925 (GeneID 41963) [SID104196249] scored calcium entry signal, replicate 1 (fluorescence units) = 3.45e7; calcium entry signal, replicate 2 (fluorescence units) = 6.19e7; resting calcium signal, replicate 1 (fluorescence units) = 1.87e7; resting calcium signal, replicate 2 (fluorescence units) = 7.87e7; inactive.
Silencing of Hyccin (GeneID 37019) [SID104186775] came out at: calcium entry signal, replicate 1 (fluorescence units) = 3.16e7; calcium entry signal, replicate 2 (fluorescence units) = 2.58e7; resting calcium signal, replicate 1 (fluorescence units) = 1.50e7; resting calcium signal, replicate 2 (fluorescence units) = 1.30e7; inactive.
CG13760 (GeneID 31237) [SID104198409] scored calcium entry signal, replicate 1 (fluorescence units) = 3.26e7; calcium entry signal, replicate 2 (fluorescence units) = 4.61e7; entry to resting ratio 2.2; resting calcium signal, replicate 1 (fluorescence units) = 1.47e7; resting calcium signal, replicate 2 (fluorescence units) = 1.82e7; inactive.
For l(2)k10201 (GeneID 48373) [SID104186231] the deposit lists calcium entry signal, replicate 1 (fluorescence units) = 3.65e7; calcium entry signal, replicate 2 (fluorescence units) = 3.96e7; resting calcium signal, replicate 1 (fluorescence units) = 1.75e7; resting calcium signal, replicate 2 (fluorescence units) = 1.71e7; inactive.
l(2)k10201 (GeneID 48373) [SID104187432] gave calcium entry signal, replicate 1 (fluorescence units) = 3.85e7; calcium entry signal, replicate 2 (fluorescence units) = 4.16e7; resting calcium signal, replicate 1 (fluorescence units) = 1.70e7; resting calcium signal, replicate 2 (fluorescence units) = 1.73e7; inactive.
With knock-down of skl (GeneID 40016) [SID104189842], the record shows calcium entry signal, replicate 1 (fluorescence units) = 2.99e7; calcium entry signal, replicate 2 (fluorescence units) = 5.86e7; resting calcium signal, replicate 1 (fluorescence units) = 1.66e7; resting calcium signal, replicate 2 (fluorescence units) = 2.19e7; inactive.
